# Experimental data from the supplement of paper PMC4604168 (melanoma cell lines).
# The list shows a part of the results. Repeats are few or missing, and single values can be far off.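 The apoptosis fraction was the count of cleaved-PARP antibody-stained nuclei relative to all DNA-stained nuclei, imaged in 1,536-well plates. Screening doses were set so most cells survived, and baseline and induced cleaved-PARP levels vary greatly across cell lines.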
# Tests used:
# Test in all cases: cleaved PARP positive nuclei fraction relative to DMSO control; melanoma cells; higher = more apoptosis
# Conditions in all cases: library dose: low library concentration; 72 h
# CBRC034 = system: CBRC034 (line from a melanoma biopsy)
# COLO792 = system: COLO792
# COLO800 = system: COLO800
# COLO829 = system: COLO829
# G361 = system: G361
# IPC-298 = system: IPC-298
# IST-MEL1 = system: IST-MEL1
# LB2518-MEL = system: LB2518-MEL
# LOXIMVI = system: LOXIMVI
# MZ2-MEL = system: MZ2-MEL
# MeWo = system: MeWo
# RPMI7951 = system: RPMI7951
# RVH-421 = system: RVH-421
# SkMel28 = system: SkMel28
# SkMel30 = system: SkMel30
# SkMel5 = system: SkMel5
# UACC257 = system: UACC257
# UACC62 = system: UACC62
SMILES,cleaved PARP positive nuclei fraction (CBRC034),cleaved PARP positive nuclei fraction (COLO792),cleaved PARP positive nuclei fraction (COLO800),cleaved PARP positive nuclei fraction (COLO829),cleaved PARP positive nuclei fraction (G361),cleaved PARP positive nuclei fraction (IPC-298),cleaved PARP positive nuclei fraction (IST-MEL1),cleaved PARP positive nuclei fraction (LB2518-MEL),cleaved PARP positive nuclei fraction (LOXIMVI),cleaved PARP positive nuclei fraction (MZ2-MEL),cleaved PARP positive nuclei fraction (MeWo),cleaved PARP positive nuclei fraction (RPMI7951),cleaved PARP positive nuclei fraction (RVH-421),cleaved PARP positive nuclei fraction (SkMel28),cleaved PARP positive nuclei fraction (SkMel30),cleaved PARP positive nuclei fraction (SkMel5),cleaved PARP positive nuclei fraction (UACC257),cleaved PARP positive nuclei fraction (UACC62)
"CCN(CC)CCCCNc1ncc2cc(-c3cc(OC)cc(OC)c3)c(NC(=O)NC(C)(C)C)nc2n1 + COc1ccc(COc2ccc(Cc3cnc(N)nc3N)cc2OC)cc1 [GW2580] (first compound 0.1 µM, partner dose 1 µM)",86.2%,82.4%,73.1%,97%,112%,112%,89.2%,100%,33.3%,103%,146%,78.9%,67.3%,40.6%,44.1%,26.4%,116%,116%
"CN(NC(=O)CC(=O)NN(C)C(=S)c1ccccc1)C(=S)c1ccccc1 + O=S(=O)(c1ccccc1)N(CC(F)(F)F)c1ccc(C(O)(C(F)(F)F)C(F)(F)F)cc1 [T0901317] (first compound 0.006 µM, partner dose 1.4 µM)",85.1%,105%,623%,175%,76.3%,146%,59.5%,245%,136%,116%,121%,82.8%,61.5%,78.2%,699%,136%,114%,170%
"O=C(O)C(=O)Nc1sc2c(c1C(=O)O)CCNC2 + Cn1cc(/C=C2\C(=O)Nc3cccnc32)c2ccccc21 [GW441756] (first compound 1.66667 µM, partner dose 0.4 µM)",94.8%,88.4%,62.2%,39.3%,130%,84.8%,133%,112%,27%,64%,46.3%,81.7%,229%,102%,106%,68.5%,103%,83.1%
"COc1ccc(COc2ccc(Cc3cnc(N)nc3N)cc2OC)cc1 + COc1cc2ncnc(Nc3ccc(Oc4ccccc4)cc3)c2cc1OC [SrcI1] (first compound 1 µM, partner dose 2 µM)",73.8%,121%,83.6%,64.5%,90.7%,115%,68.3%,146%,60%,74.1%,28.2%,57.8%,363%,187%,13.6%,58.3%,164%,233%
"COc1ccc(-c2ccc3c(N4CCOCC4)nc(N4C[C@@H](C)O[C@@H](C)C4)nc3n2)cc1CO + COc1cc2ncnc(Nc3ccc(Oc4ccccc4)cc3)c2cc1OC [SrcI1] (first compound 0.02 µM, partner dose 2 µM)",103%,94.5%,113%,99%,90.6%,90.5%,62.5%,160%,67.2%,62.6%,33.3%,216%,171%,132%,30.5%,82.4%,55.8%,69.8%
